Results taken from PMC12193022.
Results are given in words; binding and its absence hold for the method and conditions named. In cells and extracts the contact can be indirect. A yes stands for co-enrichment or nearness to the bait. Other partners may have been found.

Biological target: PfRNF1-GFP-BirA fusion protein (P. falciparum) (UniProt O97260)
Assay: proximity labelling; BioID-MS: Percoll-enriched immature gametocytes of line PfRNF1-pffnpa-GFP-BirA (control WT NF54) treated with 50 µM biotin for 24 h; streptavidin-purified proteins, LC-MS with label-free quantification; at least two-fold enrichment over controls in three biological replicates, FDR 0.01

Binder	binding
protein of developing gametocytes PfPDG2 (protein, UniProt C6KSM0 1-1437) MSVGVPVTKSFNKLKKYPYEINKFDRRETSEYFYLPVDCPRMKKCDDAYCPLAHTKLEKIFHPIVYKTQACQMAKDGACDYFQKCAFYHDSNDKNEAHINWTIWEKKWDKWRNNIDHILTQHNKNDKEIRRKVESILKIRMPHFNYGSNKNNVFLNKNVPTFHTTWQNLSSSTNGNNNMNNTIINNMNNTLSNINSNNNNNNNNNNNNNKMHNLNNMLCSSLNSSSVPCSTSLFNNTWNKSLSNSKKNIKGMEENKNKNSSCWVNELNDINNMTPDKCSNMNNTFVNKNNMYFDETLGYNNNMIDCGMNFDILDNNAYKVVEFCFTDYENNKNKNNCNWKDGNENFNNSSMTSYFSNNGKILENEKSNIYHSNNNYNNNNNNDNNQTSTHFDEALNYNKTCEYLPNLLTSEEVNDNNNKCKKFNTLPTSFKDNIAGNIMNNSNNSCDMLNSKYVLNNSNNTSIFDNYTNLSTLFDMNDSKMNNLTNFSNCNTLEHLSFDELNKSNNNNDDFFISNEKSEDGKNLKFSQFLSSNSSNGVRYGANNNDLSIVNMCGLDTNDNNKKEDNPMDNNNNNNNNNDDNINNNNNNNNNNFLNKEESKEAKTEGTNSNNIQSNENNTKPGNNKNSKKNKNKKNALNNIRNNSINRNLKGVNFSEVVSLNNNEMKSEVQEKKKNNKKENKNNKNNCKEKDQEENKISNEKHINKKEKNKNAGEDDEEDVTITDINVLEKEKSKNQKIKNNENQHNKKNNIGQNNINNNNNNNNSKNGGRNSKKGGDIINNQQTVAGNNKKSEIKNGEKNEKSNNHNNNDNLFNNKNNCSYTQMNKKFTDVNVIENNHISDVNHAKSSISVQSKNNENNMNKEKDNKKKNNNNNNNNNNNNNNNNNNNNNNNNNNNNNNNNILNNISNKENKVITNQKNNGLVGNMSGTIISTNHSNNNERGNKKYMNNYHVNSHVHNKENKNNINNRINVISNNNNNINNIEEDSKNNSNDILTNLNDTNIHQLLMNHGQLDDKDNMKNNKKDDNNIAFNVLTNKENKCNNNYNNIGRAITTAVGTSSFINNSNIGTENKNFVNDIIGDIHEKGRDNNSIFLETDNYNNLNKLIMQENENMFNKNIRSNVKNILDYITMENKNMNNNNNNNNNNNNNNNNSNISDDNALFSNNNYMNKHENLYTNNMINGNKIVDFDNMRNMNSNYNKKNDCMFLFKDNLSISGLGNVNLCNEKNMINESLNNIFKGDNINNNMSLGINSPCLTKEDFFNCAGNNNVVENKSKEYNISDNGINDSCDYTNNLLNIFLSCNSINENFDDANEYNNKINGFKGENHYSYNNVGKNISTDINESYNNSENHFNLFGNYNFFGNNCIHCKSYKNEIKNLTLQIKLMKEEILKYKQLIMSSGINEKFEKNFNSSNFSWNSTKNFNDTYEHKNYVSSIEAND	binds
MKT1 domain-containing protein PF3D7_1003700 (protein, UniProt Q8IK00 1-1308) MRVRRLQSYLTENNLLKKSSLENIKNLTLGIDALYFLRICSDLKDILSDVSGCISPCIFHMIDKQCEYFKKWDIKIIFIFDGITPKGHKLFSAHYHQYIDEGWLYYVNDEKKLSQKSFSEVNNICNSDISFLLFHYLKYKGYECIYAPYLAISQLAYFLEINLVDIVFGPPTLGLHNVTKIILNIVWKKNYFEWIDILYLLKMWNINKEQFIDACLLAGTEYCLTFPYLNLSHFNNGYKQFNFGTSIEFIKQSPLICYLQHFPNDELRKSHMNAYCLCKSMLKYPLVFLCTGQVNCFFFHSNKDQKCLQKKCDASILNDHTGHNEDGDHVDNASIKKKKKINKKDIISTSDEQNDDSDCSIYNKSSYDKNEEDKFFNNKYNRTITNISTNDCIKLSKDGYLKGDKILDKREEDTEQNYHNSKISYDSYCEQDKKDNTIEHPEVAKEKGKYKNSKLIYEHNSDNSKDRKDTNEDTVMEDSTKHIKDIYAKENYKENDIYKKKNHNNDKENISKLVPKDYIKVVGAKFPTCVYYLMSIGLLSKKLLCVLAMGEWIDYSHPIIDSFEYRDTLIDLREYRCRILGLVSIKLNPFFYKRKVKFFDYGYYINNIMDKDNKATYLNILFNDNFLWKINKDNVSEEMNRQNVKNVDLQFVLRWHLYSESKSISLVAKKCELYDEDMKERKASNDKEKDIYELESSNDNNRGHNNNSDDNNGGDNNNGGDNNNGGDNNNGGDNNNGGVNTNGGDNNNGGDNNNGGDNTNSSNDTNRSDDDNTDPSNNSDYSSNDVDNYEDDDYNNYSDYCKKSNEHTKRKKKYMHYNKHMIYKYNSYYKNILRTNNQNFHSFLCLVYFMFLENLDIFTKNCGVTLFGLLLSEVKNKNIDSNILIIFELFKFGFLTTEALLPPDGKTYPENAYASIQNNNKLDEQDKKSVLLLSRIYSLYNSNIDHSRTYEGLIDFDLCAFFAVVKIIKKTLRQLLQACVTNVLLTNMELIHILPENLYNPFDIHICGFFVTNHFMGVLIKYFLLFDFDDIQNEKETLKRTSDKNMESNKMNNDIETMNDHLLKDKLENQKETEHLSKNNDFKGYDMTTNNHISITQPNKKNNDHINMKEINDKFYTNEQPEDKHMKVDKNQKYGINQVEHKDKRSLIELENNDKNIIYKENYNENGNNSYVYSDEHNLSDDSKTNNYEATHKKHENNLDHKKKEEYKIDEEYCQTPINDDSQNNFNVFEKAIRKKFPSFVNPINDLCNAINTWRDHLCLITQLEQHTNVYDLVSDLKAADNFLEKKISYIGLDKSQTYNRICLSNNK	binds
SUZ domain-containing protein PF3D7_0218200 (protein, UniProt C6S3B8 1-807) MAVESKPNNSSKEKNEENDIINKCDDSNKINGKENIFAVEKVGINESGHMSNDNINKNQEKNKKKKKKKNTHKKVNINNTHINIHTTNDKNNGQDINKPEVIERDNIINIKNDTNNILDSSYNEEGNENNRNDINNNNNNNNININNNNINNSCSNNYGLKKKITLLKRNDIKDEGYNNENITTLNNKNNLKNNNNYNDNRNNNNNNKNNINNNNNNNCCSEKTLEQREKEYNKIRARIFSNFNKKQKNVQKTEQNNLNHTYLNNNIINNINNGDNQYAYINNFYHIYHNNSYNHIYRQNNIPICNINNHAPNIEKLNNPYYYHDNHIAYTNYMYSTQNKMNNMKTKQIGHYGINNEDNNNNNNNNINNNNNNNINNNNINNNNVPLCIPQLDNYNKTKNNFNQGTNNFNQGTNNFNKCTNNFNNAKNHIKHNINNTNKNIEHLNNHSIYNFVYPENKNIYDANGNLINNNISYTQLKMNNNINFNIHMESPINQQHNNTFKVNNDTNFFNEPTNKMKKKNKEKKNIHFNNNNNNNNNKCLYKDINQNDHNNSIINTNQNFDHINNVKNTEQNLQKKHNKMSQVSKQSNNKNNKNNSHLKKQININTNNNMDNKNNSHISKNVIVDDNKLKSSHADNSNEIVTKGKKKKNTNKKKKINNINSVNNVNNINSMNNINSMNNIISMNNVNNMNNPMYFPNVNIQKDDSNIALLYNNKPNIDFNNFQLNHINNHMIQNNIMTNNVMLNNNLTTSNFNYNLINYSYEPFYEENLMNDLDYCRDISLYEKRYDRGDNLQQNHKRYDIDFPSL	binds
ornithine aminotransferase PfOAT (enzyme, UniProt Q6LFH8 1-414) MDFVKELKSSQDYMNNELTYGAHNYDPIPVVLKRGKGVFVYDIEDRRYYDFLSAYSSVNQGHCHPDILNAMINQAKKLTICSRAFFSDSLGVCERYLTNLFGYDKVLMMNTGAEASETAYKLCRKWGYEVKKIPENSAKIIVCNNNFSGRTLGCVSASTDKKCKNNFGPFVPNFLKVPYDDLEALEKELQDPNVCAFIVEPVQGEAGVIVPSDSYFPGVASLCKKYNVLFVADEVQTGLGRTGKLLCTHHYGVKPDVILLGKALSGGHYPISAILANDDVMLVLKPGEHGSTYGGNPLAAAICVEALKVLINEKLCENADKLGAPFLQNLKEQLKDSKVVREVRGKGLLCAIEFKNDLVNVWDICLKFKENGLITRSVHDKTVRLTPPLCITKEQLDECTEIIVKTVKFFDDNL	binds
ALBA1 (protein, UniProt Q8IAX8 1-248) MKKDREPIDEDEMRITSTGRMTNYVNYGAKILGDEDKKSIKIKATGNAIGKAVTLAEIIKRRFKGLHQITRCGSTVITDQYVSGQDNSEHVVQEKTVSFIEILLSREQLDMKDAGYQPPLDEKYVKEMTPEEIVNSRPFRRGGFRPRFYRGFRGGRGGFLRRGGYRGFGDRVYEPRSSFRGGRGSGYGGNFGRGGYRSGGGMGGGFRGGFRGGFRGGRDGGYRGGNRGGSRSGFRGGRGGFRGGRALS	binds
ALBA3 (protein, UniProt Q8IJX8 1-107) MASTEEVSQERSENSIQVSMTKKPTFYARIGKRMFTGNEEKNPFDEVIITGLGNATKIAIGAASIMEKEDIGQIVKVQTAYFSSDRINRRIPKITIVLKKHPDFVAN	binds
ALBA4 (protein, UniProt A0A5K1K8Y8 1-372) MENDKKHNQKQNNVDENEFPNSKVLLVSVKRTRRFLERTARELLAGGTRYIILSGLGDALPLCVQLQSSLQSKNAANVVKIETSYSYFNSNYSYTPGLKIYMEKHPEFKGSRISPGYVSFHEKTDSFTPIYDENPNEYICSLNAGDNNLYVGGEGINGAFSELLSSHNQEVDKYESLFKELLTKAVNENGEKPDEEVKSVLYDNVDKKYPDVKLALCRIRNSLKKGSDHSTGSVFIVTFKKNFPHKKEKNMGMVYVVGPKGKNYNSVEEFLDEVQETAENLMTTLCDYNGLVKREEIKHVRMNTCRICLFSGSIFKHPNASKLDVAKAILNGLAVGYRHGPSPRLNFAYDENVFKDAWVETTGLQVFNHNEQ	binds
14-3-3I (PF3D7_0818200) (protein, UniProt C0H4V6 1-262) MATSEELKQLRCDCTYRSKLAEQAERYDEMADAMRTLVEQCVNNDKDELTVEERNLLSVAYKNAVGARRASWRIISSVEQKEMSKANVHNKNVAATYRKKVEEELNNICQDILNLLTKKLIPNTSESESKVFYYKMKGDYYRYISEFSCDEGKKEASNCAQEAYQKATDIAENELPSTHPIRLGLALNYSVFFYEILNQPHQACEMAKRAFDDAITEFDNVSEDSYKDSTLIMQLLRDNLTLWTSDLQGDQTEEKSKDEGLE	binds
NOC3 (nucleolar complex-associated protein 3) domain-containing protein PF3D7_1466800 (protein, UniProt Q8IKG9 1-902) MDFKKNNNKNKGNEKDKDQGGQPYEMRTRTFNQDVTLRLNRENFSLPKIQRNGSLKYDEGREIFEGENTDDDTKLSKKKQKEVLNLKKLLENMEKYNDFNKKSNQGTKNALDEEMKRISSMMDYYKDLKSMIAAISSSIMGDPNTQVEKLELLFFIFYESLKRKREILYIKLNNNLYELRRMDAEIKHEDENVKYMNEKNQESHDEYNEEAVKKNFRYISNLNILSCISICTILKSITPSYKIIMSEEKNEENDNNDNASRGNNNMHTNNKPGNPTKNFSKLIENVNKVEKLIVKFFRRFCRLLKENISTNPIVFVNLLCELVGVNLYLSREENLLQYLIIYGNLAVYSNKKYNCNMHILGNVNEIKNKKKFKILCAKCVVTIKEIIGNDSNLLFTLNLVDNFSNILFNNEKNISLNLLKVFSNINIKEKKANARTYANDSTNIHGDNNTDLNAKMNIGGDIKVVDVHAEKILERLFVIYLCVLKEYEKHPPKILKYSLRAISRYSMYINKFIMDDILFEIKNLAAIKTVSSTIRIICIVVYLEIYNKMNDTIYVDCSWVGNIILELLDLSYIPNSTNSSSTNKGTRGNNNNGNKKSSNDSDAESFNSDLYNSMKNDAYKYSTDSDDIERRLTKGIENEKQLYHKYKYSVKIIKSVDLLLKTKSFTINYTNFKSSNSDLLYKIIYQLFNIMVHMDFEVGIFILQFINSIFSKYPLIRCICEEEGIVVSFMDEDLSVFFHNILLHSSFFKELSCEALNISMNNSNEEYKKIVEKFIKEQEDNEIEHKIIKFSLDVNDEDILNQARFMSYDPNGSIISDKKKYEENKKNVENIIKLDKKFKKVLYEHRRKPKNPVNTSSNTNDSTNNESSYELTVKDLIYVTYSKYDDLIKCFEKKHKKDATKN	binds
